One data set addresses PD-L1 (human) (human) (UniProt Q9NZQ7). The data set can be described thus: binding assay. As to conditions: Flow cytometry: 2x10^5 CT26 cells, 60 pmol FAM-labeled ligand in 300 uL PBS, 30 min, room temperature, two PBS washes; pH not stated for binding; single-stranded DNA. (In general: Flow cytometry measures light scatter and fluorescence of single cells or particles in a stream.)

Chains of the proteins cited; added tags and fusions are not shown. Residues count along the entry.
UniProt Q9EP73, 19-239: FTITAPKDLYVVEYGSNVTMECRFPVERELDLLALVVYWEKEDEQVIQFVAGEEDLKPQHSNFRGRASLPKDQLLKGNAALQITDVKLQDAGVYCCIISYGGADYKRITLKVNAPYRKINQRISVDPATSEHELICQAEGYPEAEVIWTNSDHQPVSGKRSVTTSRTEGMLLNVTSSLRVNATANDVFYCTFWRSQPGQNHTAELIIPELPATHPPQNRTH
UniProt Q9EP73, 19-290: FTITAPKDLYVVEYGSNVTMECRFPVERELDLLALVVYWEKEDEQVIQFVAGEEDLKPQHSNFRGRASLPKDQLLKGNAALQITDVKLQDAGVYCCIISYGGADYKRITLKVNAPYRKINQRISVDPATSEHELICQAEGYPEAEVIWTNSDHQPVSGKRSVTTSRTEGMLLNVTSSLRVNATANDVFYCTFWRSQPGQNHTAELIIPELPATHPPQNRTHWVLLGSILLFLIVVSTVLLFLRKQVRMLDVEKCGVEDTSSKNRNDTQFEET

The target in the next data set is PD-L1 (murine) (mouse) (UniProt Q9EP73). The data set can be described thus: binding assay. As to conditions: Flow cytometry: 2x10^5 CT26 cells, 60 pmol FAM-labeled ligand in 300 uL PBS, 30 min, room temperature, two PBS washes; pH not stated for binding; single-stranded DNA.
Data set [1] has as its target PD-L1 on CT26 cells (mouse (CT26 colon cancer cell line)) (UniProt Q9EP73). The data set can be described thus: flow cytometry; confocal microscopy. As to conditions: Flow cytometry: 2x10^5 CT26 cells, 60 pmol FAM-labeled ligand in 300 uL PBS, 30 min, room temperature, two PBS washes, pH not stated for binding, protein on the cell surface, single-stranded DNA.

The exact form of at least one protein or probe is not confirmed. For some of these results: At least one result comes from cells or an extract, where the contact may be indirect.

The term Kd denotes the free concentration of one partner at which half of the binding sites on the other are occupied at equilibrium, for simple one-to-one binding. The low end stands for tighter binding, the high end for weaker binding.

Take “ACGGGCCACATCAACTCATTGATAGACAATGCGTCCACTGCCCGT [PD-L1 aptamer (core, without T6 linker)]”: the Kd is 4.7 nM with PD-L1 (human) (human) and 72 nM with PD-L1 (murine) (mouse). “TTTTTTACGGGCCACATCAACTCATTGATAGACAATGCGTCCACTGCCCGT [BSA-Apt]”: the binding result in data set [1] (60 pmol in 300 uL, 2.5:1 aptamer:BSA (flow), 5'-SH conjugated to BSA amino group via sulfo-SMCC) is given as “binds”. “TTTTTTACGGGCCACATCAACTCATTGATAGACAATGCGTCCACTGCCCGT [free PD-L1 aptamer]”: in data set [1] (60 pmol in 300 uL (flow), 5'-SH), the binding result is “binds”.

The values are drawn from PMC8911819.
